The test has as its target T1, endogenous endoglin (ENG) (human (endogenous in HAOECs, HUVECs, HPAECs)) (UniProt P17813).
T1 sequence: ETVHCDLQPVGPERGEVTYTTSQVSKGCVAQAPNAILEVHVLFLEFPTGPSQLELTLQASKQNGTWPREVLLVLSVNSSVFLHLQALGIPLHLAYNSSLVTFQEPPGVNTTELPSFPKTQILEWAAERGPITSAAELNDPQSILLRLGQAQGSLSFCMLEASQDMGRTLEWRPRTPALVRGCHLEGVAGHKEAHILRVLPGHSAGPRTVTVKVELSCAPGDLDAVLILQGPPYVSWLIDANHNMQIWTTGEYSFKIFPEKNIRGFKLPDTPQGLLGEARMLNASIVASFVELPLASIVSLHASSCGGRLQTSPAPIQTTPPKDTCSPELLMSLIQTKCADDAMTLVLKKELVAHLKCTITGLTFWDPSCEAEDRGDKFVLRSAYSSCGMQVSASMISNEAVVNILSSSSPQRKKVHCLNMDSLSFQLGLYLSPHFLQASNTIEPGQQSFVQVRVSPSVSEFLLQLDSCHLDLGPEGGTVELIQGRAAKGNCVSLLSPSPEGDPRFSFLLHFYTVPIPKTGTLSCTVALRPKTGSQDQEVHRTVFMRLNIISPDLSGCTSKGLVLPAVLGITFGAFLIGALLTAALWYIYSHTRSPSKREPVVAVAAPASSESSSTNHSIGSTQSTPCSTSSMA
Kind of test: affinity purification with mass spectrometry; TRC105 (anti-ENG) NHS affinity column against a BSA-NHS control column; lysates (1% Triton-X100/PBS, 2 mM EDTA) of HAOECs, HUVECs and HPAECs kept in 0.1% FBS, 10% FBS, or 0.1% FBS with 0.25 ng/ml pro:BMP9 for 40 min; elution with 0.15 M glycine pH 2.5; LC-MS/MS.

These are yes or no findings as the source states them, for the method shown. Binding seen in cells or lysates may run through a third protein. Here binding means that the protein was enriched with, or labelled near, the bait; the list need not be complete. A no says only that the protein was not detected with the bait.

B1: RALA (protein, UniProt P11233 1-206)
chain: MAANKPKGQNSLALHKVIMVGSGGVGKSALTLQFMYDEFVEDYEPTKADSYRKKVVLDGEEVQIDILDTAGQEDYAAIRDNYFRSGEGFLCVFSITEMESFAATADFREQILRVKEDENVPFLLVGNKSDLEDKRQVSVEEAKNRAEQWNVNYVETSAKTRANVDKVFFDLMREIRARKMEDSKEKNGKKKRKSLAKRIRERCCIL
As for B1, the binding result was “no binding”.

These data come from article PMC12824264.
